Data reported in publication PMC7819943, “Rice protein-binding microarrays: a tool to detect cis-acting elements near promoter regions in rice”.
This is one part of the list.

The sequences below were run against T1, OsSMF1 (Oryza sativa, UniProt Q6ZLB0 1-436) (assay: protein-binding microarray (RPBM); PBS, 2% BSA, 51.3 ng/ul salmon testes DNA, 50 uM zinc acetate, 200 nM TF, 25 C, 1 h; high values mean tight binding). Details: protein: recombinant; tags: N-terminal polyhistidine and DsRed monomer fusion (pET32a); chain copies: 2; label: CyDye5-dUTP incorporated in the synthesized complementary strand; 3' TTTTT single-stranded linker to array surface; dsDNA, one strand shown.
T1 sequence: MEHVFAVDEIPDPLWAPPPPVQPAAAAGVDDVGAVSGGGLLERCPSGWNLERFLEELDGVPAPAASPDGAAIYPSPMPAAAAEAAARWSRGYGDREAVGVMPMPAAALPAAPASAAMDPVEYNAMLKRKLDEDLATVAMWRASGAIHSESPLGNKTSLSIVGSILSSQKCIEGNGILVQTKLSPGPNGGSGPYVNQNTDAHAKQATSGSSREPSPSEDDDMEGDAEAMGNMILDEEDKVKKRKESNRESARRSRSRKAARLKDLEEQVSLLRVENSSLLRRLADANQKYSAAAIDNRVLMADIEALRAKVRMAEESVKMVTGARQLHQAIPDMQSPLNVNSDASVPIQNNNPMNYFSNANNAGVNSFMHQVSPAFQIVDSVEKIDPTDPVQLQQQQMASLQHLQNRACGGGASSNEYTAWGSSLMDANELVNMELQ
Procedure, shortened: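 Binding signal is defined as the fluorescence intensity of each feature in arbitrary units, read on an Axon 4000B scanner. Transcription factors with N-terminal polyhistidine and DsRed fusions came from E. coli BL21-CodonPlus and were purified on Ni–NTA. They were incubated at 200 nM for 1 h at 25 °C on a custom Agilent array that had been made double-stranded with Cy5-dUTP, with 50 µM zinc acetate present, and the array was washed.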

| Sequence | binding signal |
| --- | --- |
| GATTCAAGGTTGAGAGGACCTAAGATGTCCAATGATGTGTCGGAGTCACCTAGTGCAG | 3470 fluorescence intensity (a.u.) |
| CCCGCCGGCCGCCTACGCCACCCGCCCGTGTAAGCATCCACGGAGTCACCTAGTGCAG | 3540 fluorescence intensity (a.u.) |
| CATATGGTAACGGCTCACCTCATTTCGTGTATCATCTCAACGGAGTCACCTAGTGCAG | 17800 fluorescence intensity (a.u.) |
| TGCATGTAGTGGGCTGCACCTGGTGCGTCTGCATGCGTGGCGGAGTCACCTAGTGCAG | 6600 fluorescence intensity (a.u.) |
| TCGCACCGTCCAACCGCGTCATCTCGTGGACACGTGTCACCGGAGTCACCTAGTGCAG | 20900 fluorescence intensity (a.u.) |
| CTTCCTCCTGCAAATATGCGTAGTCTTCTGTCATCGTCGACGGAGTCACCTAGTGCAG | 4860 fluorescence intensity (a.u.) |
| TGTCCCCTTTCAACCTGTCATCGCCGCGTCCACCGCAGCGCGGAGTCACCTAGTGCAG | 4470 fluorescence intensity (a.u.) |
| TTCTTGTCTTGGGGATTAGGTATGTCATACAAGACTCGACCGGAGTCACCTAGTGCAG | 5110 fluorescence intensity (a.u.) |
| TGGCATGTTACATTGGATATACGGACACAAATTTGATGTACGGAGTCACCTAGTGCAG | 4180 fluorescence intensity (a.u.) |
| ACGGCCGCCACGCGAGAACCCTAACCACAATACCTACCGGCGGAGTCACCTAGTGCAG | 3240 fluorescence intensity (a.u.) |
| CCTATATGCACTAGTGTCCTGAGTATTCAATTTATTGTGTCGGAGTCACCTAGTGCAG | 3160 fluorescence intensity (a.u.) |
| CATCGTGTTGCTGACTGTACTTGACATCAACTCTTGTCCTCGGAGTCACCTAGTGCAG | 14700 fluorescence intensity (a.u.) |
| GTTTCGGCTTTCCTATCGCTTAGGTTGACACGTGGCGGATCGGAGTCACCTAGTGCAG | 26500 fluorescence intensity (a.u.) |
| TAGATCTTGCTTAGCTAGCTAGCGAATTAGTGTCGTCTTCCGGAGTCACCTAGTGCAG | 3140 fluorescence intensity (a.u.) |
| GGCCGCCATGGCGCAGCGGCACGAGCGGTGGATGGCCAAGCGGAGTCACCTAGTGCAG | 34700 fluorescence intensity (a.u.) |
| TTATAAACACACAACAAACATACGCGCTCACAACGCGTGCCGGAGTCACCTAGTGCAG | 3150 fluorescence intensity (a.u.) |
| TGGGTTTGTGGGTTATGTTTCGGTGCGTGCCGATAGTATACGGAGTCACCTAGTGCAG | 3800 fluorescence intensity (a.u.) |
| TCTTCTATAACTAGGATTGACCTGTTGGTCATCCCGATGACGGAGTCACCTAGTGCAG | 3290 fluorescence intensity (a.u.) |
| TGCAAACTTGTGAGTCACACAGTAGCATTGTGCACAGCTTCGGAGTCACCTAGTGCAG | 11300 fluorescence intensity (a.u.) |
| TACGACAAGCGTGTAGGACACGTAATTATCGGTAAACAGTCGGAGTCACCTAGTGCAG | 6290 fluorescence intensity (a.u.) |
| ACTAGCACACAGCAAGGCCCGTAGCACGCGTCACCACGGGCGGAGTCACCTAGTGCAG | 4540 fluorescence intensity (a.u.) |
| GGATTTGAATCCGCCGGGTGTAGTATTGATCTGATGATCACGGAGTCACCTAGTGCAG | 13100 fluorescence intensity (a.u.) |
| GATAAACTTTTGGATACTCATGACACGCTTTTCAAACTGCCGGAGTCACCTAGTGCAG | 4060 fluorescence intensity (a.u.) |
| TCTAATTAGTAGTATTATTATACATGTGGTCAGCAATTTTCGGAGTCACCTAGTGCAG | 8560 fluorescence intensity (a.u.) |
| GGGATTGGGAATTTACACGAGGGAATTGATGATGAGATTACGGAGTCACCTAGTGCAG | 3830 fluorescence intensity (a.u.) |
| CTCATGTCATGTGGTCACTCCCCAAGTCACCAGCATCACCCGGAGTCACCTAGTGCAG | 3430 fluorescence intensity (a.u.) |
| TGCTATTTATGAGGTATTCATGTACAACTATAACATTCGACGGAGTCACCTAGTGCAG | 3390 fluorescence intensity (a.u.) |

Rewritten comma-delimited: entries from further up.
Sequence,binding signal
TTATAAACACACAACAAACATACGCGCTCACAACGCGTGCCGGAGTCACCTAGTGCAG,3150 fluorescence intensity (a.u.)
TGGGTTTGTGGGTTATGTTTCGGTGCGTGCCGATAGTATACGGAGTCACCTAGTGCAG,3800 fluorescence intensity (a.u.)
TCTTCTATAACTAGGATTGACCTGTTGGTCATCCCGATGACGGAGTCACCTAGTGCAG,3290 fluorescence intensity (a.u.)
TGCAAACTTGTGAGTCACACAGTAGCATTGTGCACAGCTTCGGAGTCACCTAGTGCAG,11300 fluorescence intensity (a.u.)

(continued)

| Sequence | binding signal |
| --- | --- |
| GACGTGGTAAGTTAACTTGGTTAAAATGTGCTGACGTGGTCGGAGTCACCTAGTGCAG | 24700 fluorescence intensity (a.u.) |
| ATGTTGCCTTTCTTTCGTCAACTATTTGCATTGCATGCATCGGAGTCACCTAGTGCAG | 3280 fluorescence intensity (a.u.) |
| AACCGATTACCGGTACTCCAAATGACCTCACTGCATTTCTCGGAGTCACCTAGTGCAG | 3180 fluorescence intensity (a.u.) |
| GTGTTTTATCCATCATACGTGATGTGTTACTCGCGCGTGTCGGAGTCACCTAGTGCAG | 3880 fluorescence intensity (a.u.) |
| ATATATGCTAAGTATAAGTAGGGACATGACGCAAGTGTCACGGAGTCACCTAGTGCAG | 3920 fluorescence intensity (a.u.) |
| CCACCGCCGGCCACACACCTCCTGCCACGCCGCGCGCTCGCGGAGTCACCTAGTGCAG | 5040 fluorescence intensity (a.u.) |
| GGCCAGACAATTGTTAATGGGCTTGGGCTCGCTCAGGGAACGGAGTCACCTAGTGCAG | 31400 fluorescence intensity (a.u.) |
| AACAGTACAGCAGCTCACATGTCACGATCAAACCGTGTAACGGAGTCACCTAGTGCAG | 4240 fluorescence intensity (a.u.) |
| TAGGACTTATTCTTTTGGTGTTGACACAAGGTACATGCTACGGAGTCACCTAGTGCAG | 4100 fluorescence intensity (a.u.) |
| AACGTTCCGGACCGTTAGATGACACAAGCAACGGTGGATCCGGAGTCACCTAGTGCAG | 3870 fluorescence intensity (a.u.) |
| CTTCACCGAGCTGCTCCACCTCCGTTTTGGCCCTCCCCTACGGAGTCACCTAGTGCAG | 26800 fluorescence intensity (a.u.) |
| GGGGAAGTACGGCGTGGAGCTGGACGCCGTCGCCCTCAACCGGAGTCACCTAGTGCAG | 33900 fluorescence intensity (a.u.) |
| CTCGCATTCCCTCGCCTGGGAAGAGCACGTGGCGAGCGCACGGAGTCACCTAGTGCAG | 3310 fluorescence intensity (a.u.) |
| GCGATCCAAAGATATCCGAGGTGACGCCGTGTCATCCCTACGGAGTCACCTAGTGCAG | 5610 fluorescence intensity (a.u.) |
| GGTGTTGTGGTGAACGGGTCTATATTACGATGAGAGGCCCCGGAGTCACCTAGTGCAG | 3880 fluorescence intensity (a.u.) |
| ACATCTCATAATTAACGTGCGCGTCATCAATAGCATTAATCGGAGTCACCTAGTGCAG | 3660 fluorescence intensity (a.u.) |
| GATGTTAATGAATCTAGGCACACATATATATCTAGATTCACGGAGTCACCTAGTGCAG | 4900 fluorescence intensity (a.u.) |
| GCGCGCGCCACCGCACCCGCGACGCCGACGTGTTCATGACCGGAGTCACCTAGTGCAG | 5890 fluorescence intensity (a.u.) |
| TGAGTTGAGGACTTGTCACCTCGTCGTCATAGTCGTGGAGCGGAGTCACCTAGTGCAG | 5830 fluorescence intensity (a.u.) |
| GACCTGTCTACCGCCGCCCTAGTGACTAATGTTGACCACACGGAGTCACCTAGTGCAG | 3580 fluorescence intensity (a.u.) |
| AATCCATTTGATGATTTGAGTAGTTGTCATAGCACAGGGCCGGAGTCACCTAGTGCAG | 36000 fluorescence intensity (a.u.) |
| AAGCGGTCAAGACGCAACACACGTCAGGCCTCGAGACCAACGGAGTCACCTAGTGCAG | 5410 fluorescence intensity (a.u.) |
| AATGATGACAAGAGACCATTCTACGTCAGCAAAGGAATTACGGAGTCACCTAGTGCAG | 7420 fluorescence intensity (a.u.) |
| CGCTTCCCTTGATATGACGCACACGATTTTACTGCTGGCCCGGAGTCACCTAGTGCAG | 4570 fluorescence intensity (a.u.) |
| TCATGTGCAGTTTTCCGAACTACTAAACGATATATTATTTCGGAGTCACCTAGTGCAG | 3460 fluorescence intensity (a.u.) |
| GCCGGGGCCGGGGCGGGCGTGGGCCCCTTCGCTCCGATGGCGGAGTCACCTAGTGCAG | 4096 fluorescence intensity (a.u.) |
| CGCTAAAGAAGACGCTAATTGCGATCGAGTTAACCCGGTGCGGAGTCACCTAGTGCAG | 3360 fluorescence intensity (a.u.) |
